Among the data in PMC7419509 are binding values, retold here.

By UniProt entry, the sequences of proteins in these tests, tags left out.
UniProt Q6R327: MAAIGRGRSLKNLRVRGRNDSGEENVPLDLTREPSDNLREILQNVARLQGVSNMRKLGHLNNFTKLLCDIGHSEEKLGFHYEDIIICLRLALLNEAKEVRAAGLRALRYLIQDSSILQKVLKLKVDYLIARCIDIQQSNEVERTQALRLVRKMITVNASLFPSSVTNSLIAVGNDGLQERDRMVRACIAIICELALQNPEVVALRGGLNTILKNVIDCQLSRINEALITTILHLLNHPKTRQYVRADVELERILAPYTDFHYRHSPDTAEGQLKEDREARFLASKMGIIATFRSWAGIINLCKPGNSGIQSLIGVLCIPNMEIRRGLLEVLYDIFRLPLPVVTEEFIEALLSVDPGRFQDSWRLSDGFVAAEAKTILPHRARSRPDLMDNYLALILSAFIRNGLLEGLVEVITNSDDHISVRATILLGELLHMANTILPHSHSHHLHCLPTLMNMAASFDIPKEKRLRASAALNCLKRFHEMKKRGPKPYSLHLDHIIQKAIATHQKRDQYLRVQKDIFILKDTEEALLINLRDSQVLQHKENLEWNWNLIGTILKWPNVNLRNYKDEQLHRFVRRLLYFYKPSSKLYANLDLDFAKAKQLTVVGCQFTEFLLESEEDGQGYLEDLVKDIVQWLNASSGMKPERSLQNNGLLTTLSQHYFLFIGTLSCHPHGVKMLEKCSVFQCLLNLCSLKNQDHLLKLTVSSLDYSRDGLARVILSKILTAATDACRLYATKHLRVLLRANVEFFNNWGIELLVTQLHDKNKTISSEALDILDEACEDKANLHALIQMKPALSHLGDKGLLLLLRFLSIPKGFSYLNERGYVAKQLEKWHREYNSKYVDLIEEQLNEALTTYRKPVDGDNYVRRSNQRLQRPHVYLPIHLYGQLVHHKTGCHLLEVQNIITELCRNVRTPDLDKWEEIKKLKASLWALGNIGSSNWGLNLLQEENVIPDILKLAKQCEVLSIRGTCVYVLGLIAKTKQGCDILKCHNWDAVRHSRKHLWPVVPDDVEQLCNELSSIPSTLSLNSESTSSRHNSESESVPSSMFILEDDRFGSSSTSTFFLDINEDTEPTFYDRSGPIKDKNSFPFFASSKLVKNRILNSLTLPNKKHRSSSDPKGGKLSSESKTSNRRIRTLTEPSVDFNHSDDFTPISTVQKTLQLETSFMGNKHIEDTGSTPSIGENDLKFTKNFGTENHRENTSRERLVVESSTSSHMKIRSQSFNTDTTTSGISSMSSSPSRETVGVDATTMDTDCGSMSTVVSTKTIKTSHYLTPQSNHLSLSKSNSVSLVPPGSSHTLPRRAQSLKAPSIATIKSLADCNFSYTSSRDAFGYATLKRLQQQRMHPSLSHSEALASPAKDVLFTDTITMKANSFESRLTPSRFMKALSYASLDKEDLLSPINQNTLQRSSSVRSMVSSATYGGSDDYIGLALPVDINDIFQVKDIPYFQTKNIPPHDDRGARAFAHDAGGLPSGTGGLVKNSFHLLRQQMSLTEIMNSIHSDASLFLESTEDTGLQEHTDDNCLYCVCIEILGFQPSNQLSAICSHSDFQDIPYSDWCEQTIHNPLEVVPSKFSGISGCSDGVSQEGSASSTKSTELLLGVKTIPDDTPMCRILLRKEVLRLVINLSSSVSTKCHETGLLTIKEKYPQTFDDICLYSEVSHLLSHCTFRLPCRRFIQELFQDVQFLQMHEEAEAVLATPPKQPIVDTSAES

No constants are given. Whether binding was seen depends on the method and setting. Binding seen in cells or lysates may run through a third protein. Some results given as binding are weak or reduced against the parent protein; the word gives no strength.

Test [1] deals with RICTOR (human (endogenous in HT1080 and HeLa)) (UniProt Q6R327). The test is described as follows: co-IP; anti-RICTOR immunoprecipitates of HT1080 cells transiently transfected with TMBIM6 and TMBIM6 mutant constructs, immunoblot. In general terms: Immunoblotting shows a protein as a band on a membrane.
For test [2] the target is unchanged. The test is described as follows: poly(A) mRNA pull-down with oligo(dT) cellulose; mRNA-bound ribosomes purified from cell lysate (50 mM Tris-HCl pH 7.4, 100 mM NaCl, 30 mM MgCl2, 0.3% CHAPS, cycloheximide) with oligo(dT) cellulose, 1 h at RT; immunoblot.
For test [3] the target is unchanged. The test is described as follows: SEC + co-IP; lysate of TMBIM6 KO HT1080 cells transiently overexpressing TMBIM6-HA in CHAPS buffer (25 mM HEPES pH 7.4, 150 mM NaCl, 1 mM EDTA, 0.3% CHAPS) on Superdex 200 Increase 10/300 GL; pooled fractions immunoprecipitated with anti-RICTOR antibody.

As for “TMBIM6-ΔN (from UniProt P55061 30-237) (domain or fragment)”, in test [1], the binding result is given as “binds”.

As to TMBIM6 (from UniProt P55061 1-237), the binding entry in test [2] is reported as “binds”. On to “TMBIM6-HA (human influenza hemagglutinin (HA)-tagged TMBIM6) (from UniProt P55061 1-237)”, for which the binding result in test [3] and in test [1] was “binds” throughout.
